Experimental data as given in PubChem BioAssay AID1487 (National Center for Advancing Translational Sciences (NCATS), 2009).
Some of the results follow. Further columns of the screen follow, without active or inactive calls. Compounds called inactive in the main read-out are mostly missing here. The note in brackets gives the kind of curve behind each potency; many fits are weak.

Experiment: qHTS Assay for Modulators of Lamin A Splicing
Details: HeLa LMNA splicing GFP/RFP minigene ratio, 48 h
Summary of the method: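 Read-out is the ratio of GFP to DsRed2 object intensity, acquired by 488 nm laser-scanning cytometry on HeLa lamin A-EGFP minigene reporter cells. Compound incubation 48 hrs at 37 °C in Opti-MEM with 2% FBS; DMSO 0.5% final.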

[1] = measured here: RFP viability control channel
[2] = measured here: GFP splicing reporter channel

SMILES	AC50 [1]	AC50 [2]
O=C(CCN1CCN(c2ccc(Cl)cc2)CC1)Nc1nccs1	10 µM [rising, partial curve]	
Cn1c(N)c(C(=O)COc2ccc(Cl)cc2Cl)c(=O)n(C)c1=O	11.2 µM [rising, partial curve]	
Cc1cc(NC(=O)CCC(=O)N(c2ccccc2)C(C(=O)NC2CCCC2)c2ccccc2)no1 (stereo not drawn)		11.2 µM [falling, partial curve, poor fit]
Cc1nc2ccc(S(=O)(=O)NCC(=O)N3CCN(c4ccccc4)CC3)cc2s1	14.1 µM [rising, partial curve]	14.1 µM [rising, partial curve, poor fit]
c1ccc(-n2nnnc2NCCc2c[nH]c3ccccc23)cc1	31.6 µM [rising, single point]	
O=C(CCSc1nc(-c2ccco2)cc(C(F)(F)F)n1)N1CCN(c2ccccn2)CC1	11.2 µM [rising, single point]	
O=C(OCc1cc(=O)n2nc(C3CC3)sc2n1)c1ccc(F)cc1		8.91 µM [falling, partial curve, poor fit]
N#Cc1ccccc1-c1ccc2ncnc(NC3CC3)c2c1		15.8 µM [falling, single point]
COC(=O)c1ccc(NC(=O)c2cc(S(=O)(=O)N3CCc4ccccc43)cn2C)cc1	14.1 µM [rising, partial curve]	10 µM [rising, partial curve, poor fit]
N#Cc1ccccc1Cn1cc(C#N)c2ccccc21		35.5 µM [falling, single point]
CCCCc1nnc(SCc2cc(=O)c3cc(C(=O)OCC)ccc3[nH]2)n1C		0.0282 µM [rising, full curve, poor fit]
COc1ccc(N/C(N)=N/c2nc(C)cc(C)n2)c(OC)c1	6.31 µM [falling, single point]	
O=C(NCc1cccnc1)C1CCN(Cc2cc3ccccc3n2Cc2cccc(Cl)c2)CC1	12.6 µM [rising, single point]	
Cc1cc(=O)[nH]c(SCC(=O)/C=C2\N(C)c3ccccc3C2(C)C)n1	22.4 µM [rising, single point]	11.2 µM [rising, single point]
Cc1cccc(OCCCCCn2ccnc2)c1C	17.8 µM [rising, single point]	
O=C(/C=C/c1ccccc1)NC(NC(=S)Nc1ccc(Cl)cc1)C(Cl)(Cl)Cl (stereo not drawn)	35.5 µM [falling, single point]	20 µM [falling, single point]
CN(C)/C=C(\c1cnc(Cl)s1)S(=O)(=O)c1ccccc1	5.62 µM [rising, single point]	
Cc1ccc(C2=C(c3ccc([N+](=O)[O-])cc3)C(=O)OC2)cc1C	35.5 µM [rising, single point]	
O=[N+]([O-])c1ccc(F)cc1OCc1nc(-c2cccs2)no1		0.794 µM [rising, full curve, poor fit]

Reprinted at random: 2 compounds from above
SMILES	AC50 [1]	AC50 [2]
N#Cc1ccccc1Cn1cc(C#N)c2ccccc21		35.5 µM [falling, single point]
O=C(/C=C/c1ccccc1)NC(NC(=S)Nc1ccc(Cl)cc1)C(Cl)(Cl)Cl (stereo not drawn)	35.5 µM [falling, single point]	20 µM [falling, single point]

Following part

SMILES	AC50 [1]	AC50 [2]
CN(C)c1nc(N)nc(/C(C#N)=C/C2CC3C=CC2C3)n1 (stereo not drawn)		10 µM [rising, partial curve]
Cc1cc(N2CCC(C)CC2)n2nc(C)c(-c3ccccc3)c2n1	22.4 µM [rising, partial curve]	20 µM [rising, partial curve]
CC(=O)c1cccc(NC(=O)NC2CCCc3ccccc32)c1 (stereo not drawn)		0.0501 µM [rising, full curve, poor fit]
Cc1ccc(-c2csc(NC(=O)c3ccc(C)o3)n2)cc1	35.5 µM [rising, single point]	35.5 µM [rising, single point]
CCOC(=O)/C(=N\Nc1ccccc1Cl)N1CCN(Cc2ccccc2)CC1	35.5 µM [rising, single point]	
CCOC(=O)c1cc(-c2ccc(C)cc2)n(CCC(=O)N2CCN(c3ccccn3)CC2)c1C	35.5 µM [rising, single point]	35.5 µM [rising, single point]
CCc1nnc(N2CCN(c3ncnc4c3oc3ccccc34)CC2)s1	35.5 µM [rising, single point]	
Cc1cc(C)c(OCC(=O)Nc2cccc(NC(=O)c3ccco3)c2)c(Br)c1	15.8 µM [rising, single point]	
S=C1SCN(Cc2ccccn2)CN1Cc1ccco1	4.47 µM [falling, full curve]	3.98 µM [falling, full curve]
CCCc1nc2oc3c(N4CCNCC4)ncnc3c2c2c1CCCC2	35.5 µM [falling, partial curve, poor fit]	35.5 µM [falling, single point]
COC(=O)c1ccccc1NC(=O)C1CCCN(S(=O)(=O)c2ccc(OC)cc2)C1 (stereo not drawn)	35.5 µM [rising, single point]	
O=Cc1ccc(Oc2ncccn2)cc1	0.00398 µM [rising, full curve, poor fit]	
CCOc1ccccc1CNC(=O)c1cc2cc(S(=O)(=O)N3CCCCC3)ccc2n1C		0.501 µM [rising, single point]
CC(Sc1ccc(Cl)cc1)C(=O)Nc1ccccc1-c1ccccc1 (stereo not drawn)	31.6 µM [rising, single point]	
O=C1CC(SC(=Nc2ccccc2)Nc2ccccc2)C(=O)N1c1ccc(Cl)c(Cl)c1 (stereo not drawn)	22.4 µM [rising, single point]	15.8 µM [rising, single point]
CC(=O)Nc1ccc(NC(=O)CCNS(=O)(=O)c2cccc3nsnc23)cc1		20 µM [falling, partial curve, poor fit]
CN(C(=O)c1c(Br)cnn1C)C12CC3CC(CC(C3)C1)C2	3.55 µM [rising, full curve, poor fit]	3.55 µM [rising, single point]
COc1cc(OC)c(-c2nnc(-c3ccc(OC)c(OC)c3OC)o2)cc1OC	17.8 µM [rising, single point]	
